Experimental data: the supplement of paper PMC10849652
Some of the results follow.

Protein sequences, listed by entry. Tags and fused reporters are not part of them. Lines headed by an entry give the natural chain unless they say otherwise; changes in a name come on top.
UniProt O00273: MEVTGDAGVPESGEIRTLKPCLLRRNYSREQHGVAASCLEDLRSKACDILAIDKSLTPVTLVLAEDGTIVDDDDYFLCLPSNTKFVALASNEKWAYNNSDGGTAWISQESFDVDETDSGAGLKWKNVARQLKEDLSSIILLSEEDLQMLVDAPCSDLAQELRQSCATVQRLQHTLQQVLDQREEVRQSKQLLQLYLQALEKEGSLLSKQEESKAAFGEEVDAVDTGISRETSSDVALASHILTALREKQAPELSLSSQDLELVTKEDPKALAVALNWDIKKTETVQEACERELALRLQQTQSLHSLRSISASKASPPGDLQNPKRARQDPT
UniProt Q9GZP9: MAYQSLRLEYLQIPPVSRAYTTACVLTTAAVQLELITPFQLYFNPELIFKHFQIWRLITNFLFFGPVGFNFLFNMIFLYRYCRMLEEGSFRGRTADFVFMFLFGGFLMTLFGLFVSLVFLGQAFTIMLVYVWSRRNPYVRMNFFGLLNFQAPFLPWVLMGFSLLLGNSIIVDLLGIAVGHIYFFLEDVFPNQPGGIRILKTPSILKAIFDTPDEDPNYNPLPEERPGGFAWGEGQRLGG
UniProt Q9NWV4: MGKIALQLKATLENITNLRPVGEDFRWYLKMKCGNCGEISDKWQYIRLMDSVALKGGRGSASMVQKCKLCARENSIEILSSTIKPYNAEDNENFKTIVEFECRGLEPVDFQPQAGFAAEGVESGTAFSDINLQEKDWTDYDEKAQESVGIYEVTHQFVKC
UniProt Q9UER7, whole entry, looked up: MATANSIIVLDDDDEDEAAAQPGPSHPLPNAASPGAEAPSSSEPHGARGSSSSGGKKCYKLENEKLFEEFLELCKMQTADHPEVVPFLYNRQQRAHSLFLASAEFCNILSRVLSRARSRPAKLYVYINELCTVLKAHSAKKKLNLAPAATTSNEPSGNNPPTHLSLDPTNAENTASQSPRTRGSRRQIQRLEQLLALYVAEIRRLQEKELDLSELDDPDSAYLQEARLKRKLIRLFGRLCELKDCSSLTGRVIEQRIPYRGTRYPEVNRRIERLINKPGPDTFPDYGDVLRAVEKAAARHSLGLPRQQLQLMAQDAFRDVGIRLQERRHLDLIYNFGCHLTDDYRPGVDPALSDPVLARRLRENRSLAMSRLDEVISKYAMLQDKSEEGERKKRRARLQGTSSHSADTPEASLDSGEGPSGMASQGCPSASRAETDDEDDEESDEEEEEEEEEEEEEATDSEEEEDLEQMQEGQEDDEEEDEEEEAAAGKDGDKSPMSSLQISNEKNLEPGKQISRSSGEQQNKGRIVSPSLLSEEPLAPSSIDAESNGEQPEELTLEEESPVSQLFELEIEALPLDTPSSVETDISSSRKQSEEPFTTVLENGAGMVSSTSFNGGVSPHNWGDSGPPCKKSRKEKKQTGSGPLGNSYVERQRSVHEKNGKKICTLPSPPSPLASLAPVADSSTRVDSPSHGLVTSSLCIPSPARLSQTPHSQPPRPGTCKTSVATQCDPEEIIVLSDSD
UniProt Q92564: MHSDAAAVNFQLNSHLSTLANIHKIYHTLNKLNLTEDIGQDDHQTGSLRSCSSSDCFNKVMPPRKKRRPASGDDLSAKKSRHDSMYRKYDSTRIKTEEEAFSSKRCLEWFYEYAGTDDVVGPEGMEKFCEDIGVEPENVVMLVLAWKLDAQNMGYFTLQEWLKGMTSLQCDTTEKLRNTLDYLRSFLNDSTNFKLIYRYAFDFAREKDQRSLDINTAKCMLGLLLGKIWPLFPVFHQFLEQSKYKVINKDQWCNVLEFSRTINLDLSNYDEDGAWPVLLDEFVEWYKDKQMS
UniProt Q9H773: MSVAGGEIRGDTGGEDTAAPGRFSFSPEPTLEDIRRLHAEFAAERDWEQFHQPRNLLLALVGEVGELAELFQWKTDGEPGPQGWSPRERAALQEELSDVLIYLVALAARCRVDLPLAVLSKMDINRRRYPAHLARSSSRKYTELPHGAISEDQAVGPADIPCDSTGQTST
UniProt Q9H0S4: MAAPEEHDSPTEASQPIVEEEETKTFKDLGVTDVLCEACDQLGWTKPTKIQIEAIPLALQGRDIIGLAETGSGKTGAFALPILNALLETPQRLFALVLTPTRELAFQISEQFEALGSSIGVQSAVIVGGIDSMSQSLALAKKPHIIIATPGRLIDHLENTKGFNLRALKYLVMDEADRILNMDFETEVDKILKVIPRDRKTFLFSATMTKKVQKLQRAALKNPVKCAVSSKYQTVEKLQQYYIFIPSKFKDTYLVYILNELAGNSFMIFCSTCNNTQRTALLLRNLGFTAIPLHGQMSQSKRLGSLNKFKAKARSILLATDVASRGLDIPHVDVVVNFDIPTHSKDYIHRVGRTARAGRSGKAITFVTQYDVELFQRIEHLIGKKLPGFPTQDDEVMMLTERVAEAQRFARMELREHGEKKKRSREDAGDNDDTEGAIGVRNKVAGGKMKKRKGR
UniProt Q9H1C7: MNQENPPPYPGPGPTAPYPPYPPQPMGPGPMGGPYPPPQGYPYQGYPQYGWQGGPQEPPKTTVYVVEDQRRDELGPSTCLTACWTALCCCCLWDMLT
UniProt Q9H9R9: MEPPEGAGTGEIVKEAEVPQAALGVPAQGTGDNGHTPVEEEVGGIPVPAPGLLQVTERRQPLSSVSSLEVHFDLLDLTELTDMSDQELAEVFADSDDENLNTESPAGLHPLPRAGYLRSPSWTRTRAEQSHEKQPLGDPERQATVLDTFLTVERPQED
UniProt Q05D60: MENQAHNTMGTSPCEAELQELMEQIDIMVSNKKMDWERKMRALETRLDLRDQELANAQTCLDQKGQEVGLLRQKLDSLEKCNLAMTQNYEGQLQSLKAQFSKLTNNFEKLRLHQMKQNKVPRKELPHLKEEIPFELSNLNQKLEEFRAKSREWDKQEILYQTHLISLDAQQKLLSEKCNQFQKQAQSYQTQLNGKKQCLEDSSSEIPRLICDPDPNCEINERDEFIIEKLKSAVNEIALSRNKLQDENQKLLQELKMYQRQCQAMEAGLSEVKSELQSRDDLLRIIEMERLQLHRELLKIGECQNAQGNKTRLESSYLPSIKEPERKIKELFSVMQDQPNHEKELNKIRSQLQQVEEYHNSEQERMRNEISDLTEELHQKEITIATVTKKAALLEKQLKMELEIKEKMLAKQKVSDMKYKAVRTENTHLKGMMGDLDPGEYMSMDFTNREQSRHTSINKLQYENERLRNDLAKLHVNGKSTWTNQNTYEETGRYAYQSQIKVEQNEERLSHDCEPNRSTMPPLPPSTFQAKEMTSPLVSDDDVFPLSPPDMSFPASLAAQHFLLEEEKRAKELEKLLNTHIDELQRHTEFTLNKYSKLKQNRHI
UniProt Q9GZR7: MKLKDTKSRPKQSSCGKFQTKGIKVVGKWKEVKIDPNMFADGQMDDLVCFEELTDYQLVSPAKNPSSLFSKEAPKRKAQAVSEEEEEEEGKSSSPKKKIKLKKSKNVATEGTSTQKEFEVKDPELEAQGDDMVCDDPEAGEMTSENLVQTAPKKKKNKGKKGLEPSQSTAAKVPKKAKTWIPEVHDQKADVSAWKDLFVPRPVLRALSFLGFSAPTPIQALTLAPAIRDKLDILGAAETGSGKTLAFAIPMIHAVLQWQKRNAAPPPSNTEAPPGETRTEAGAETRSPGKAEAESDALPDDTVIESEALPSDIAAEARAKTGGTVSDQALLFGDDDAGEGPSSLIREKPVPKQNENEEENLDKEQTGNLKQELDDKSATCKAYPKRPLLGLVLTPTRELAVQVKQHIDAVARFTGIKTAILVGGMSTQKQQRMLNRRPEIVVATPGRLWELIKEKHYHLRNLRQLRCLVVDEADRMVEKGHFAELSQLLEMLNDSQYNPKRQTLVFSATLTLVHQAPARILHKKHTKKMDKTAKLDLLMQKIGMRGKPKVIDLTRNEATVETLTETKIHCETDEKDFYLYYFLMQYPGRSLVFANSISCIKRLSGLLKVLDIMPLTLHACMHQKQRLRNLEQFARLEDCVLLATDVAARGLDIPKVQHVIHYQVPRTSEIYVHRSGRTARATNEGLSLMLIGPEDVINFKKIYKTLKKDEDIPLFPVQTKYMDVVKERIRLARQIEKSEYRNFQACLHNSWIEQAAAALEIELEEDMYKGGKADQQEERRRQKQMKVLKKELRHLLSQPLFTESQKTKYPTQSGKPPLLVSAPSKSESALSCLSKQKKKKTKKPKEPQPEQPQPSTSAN
UniProt Q9UJU6: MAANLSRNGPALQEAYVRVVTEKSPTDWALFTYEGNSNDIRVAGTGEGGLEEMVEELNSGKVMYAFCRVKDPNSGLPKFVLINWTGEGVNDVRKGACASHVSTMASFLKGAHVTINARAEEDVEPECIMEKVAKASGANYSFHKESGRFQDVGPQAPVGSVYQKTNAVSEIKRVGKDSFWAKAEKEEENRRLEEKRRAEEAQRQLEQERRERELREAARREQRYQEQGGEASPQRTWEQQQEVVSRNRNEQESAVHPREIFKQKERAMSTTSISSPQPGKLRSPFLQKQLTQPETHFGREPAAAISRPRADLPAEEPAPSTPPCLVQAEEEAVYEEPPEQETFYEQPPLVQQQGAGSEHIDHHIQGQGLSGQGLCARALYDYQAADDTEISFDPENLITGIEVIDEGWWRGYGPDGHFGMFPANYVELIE
UniProt Q96GG9: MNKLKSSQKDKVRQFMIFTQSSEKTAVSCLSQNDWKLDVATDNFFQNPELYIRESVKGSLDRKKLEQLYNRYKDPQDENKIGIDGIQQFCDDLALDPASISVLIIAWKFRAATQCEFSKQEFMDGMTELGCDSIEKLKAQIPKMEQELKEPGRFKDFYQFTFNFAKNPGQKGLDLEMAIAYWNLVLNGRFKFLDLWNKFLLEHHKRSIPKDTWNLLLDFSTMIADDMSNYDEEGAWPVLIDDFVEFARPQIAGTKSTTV
UniProt Q58WW2: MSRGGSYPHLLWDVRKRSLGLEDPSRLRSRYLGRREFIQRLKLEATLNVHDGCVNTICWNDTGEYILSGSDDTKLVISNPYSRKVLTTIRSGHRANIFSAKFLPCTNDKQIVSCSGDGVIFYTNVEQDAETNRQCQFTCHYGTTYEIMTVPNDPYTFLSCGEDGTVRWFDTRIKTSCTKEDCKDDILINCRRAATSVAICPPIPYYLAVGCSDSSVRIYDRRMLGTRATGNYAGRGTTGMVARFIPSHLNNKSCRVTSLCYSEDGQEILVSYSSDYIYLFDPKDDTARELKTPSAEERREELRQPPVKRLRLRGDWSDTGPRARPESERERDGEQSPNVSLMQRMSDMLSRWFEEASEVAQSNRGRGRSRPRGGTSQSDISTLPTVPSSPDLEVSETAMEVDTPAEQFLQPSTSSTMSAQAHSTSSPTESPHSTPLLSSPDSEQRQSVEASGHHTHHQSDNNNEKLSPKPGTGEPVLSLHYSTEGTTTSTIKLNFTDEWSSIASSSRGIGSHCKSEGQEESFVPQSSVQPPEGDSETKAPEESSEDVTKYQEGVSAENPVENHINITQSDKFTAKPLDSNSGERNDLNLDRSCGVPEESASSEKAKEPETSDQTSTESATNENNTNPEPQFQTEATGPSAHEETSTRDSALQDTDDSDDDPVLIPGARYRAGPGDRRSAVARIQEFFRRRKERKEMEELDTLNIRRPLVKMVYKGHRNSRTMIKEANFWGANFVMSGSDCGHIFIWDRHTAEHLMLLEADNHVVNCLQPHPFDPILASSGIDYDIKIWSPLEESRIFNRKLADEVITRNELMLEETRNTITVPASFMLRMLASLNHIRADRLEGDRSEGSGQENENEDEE
UniProt P61803: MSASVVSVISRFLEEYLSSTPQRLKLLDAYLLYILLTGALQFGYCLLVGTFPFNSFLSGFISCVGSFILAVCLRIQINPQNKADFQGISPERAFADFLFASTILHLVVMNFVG
UniProt Q9UHI6: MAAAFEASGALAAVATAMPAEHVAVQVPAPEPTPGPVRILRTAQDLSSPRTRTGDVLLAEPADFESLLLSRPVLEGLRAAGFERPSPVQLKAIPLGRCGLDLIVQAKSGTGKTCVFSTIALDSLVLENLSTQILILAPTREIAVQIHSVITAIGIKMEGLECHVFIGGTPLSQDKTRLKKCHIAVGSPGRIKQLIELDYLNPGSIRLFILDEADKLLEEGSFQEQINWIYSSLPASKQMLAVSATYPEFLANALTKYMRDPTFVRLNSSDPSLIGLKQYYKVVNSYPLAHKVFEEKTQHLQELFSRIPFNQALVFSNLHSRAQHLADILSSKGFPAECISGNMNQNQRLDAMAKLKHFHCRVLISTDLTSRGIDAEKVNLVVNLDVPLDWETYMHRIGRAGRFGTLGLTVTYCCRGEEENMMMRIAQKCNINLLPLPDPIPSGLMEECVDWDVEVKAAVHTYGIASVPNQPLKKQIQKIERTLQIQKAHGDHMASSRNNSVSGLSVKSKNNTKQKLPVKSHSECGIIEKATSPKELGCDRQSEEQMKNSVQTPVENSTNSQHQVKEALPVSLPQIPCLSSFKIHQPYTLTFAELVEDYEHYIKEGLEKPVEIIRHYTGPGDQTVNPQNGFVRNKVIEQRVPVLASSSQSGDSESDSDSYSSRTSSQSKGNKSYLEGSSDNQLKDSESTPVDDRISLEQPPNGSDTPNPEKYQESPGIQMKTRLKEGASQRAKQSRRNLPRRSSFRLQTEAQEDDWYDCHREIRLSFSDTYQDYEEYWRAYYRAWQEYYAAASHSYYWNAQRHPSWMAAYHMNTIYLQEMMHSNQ

Assays:
Experiment in all cases: log2 fold change, soluble protein after heating vs DMSO (PISA); higher = thermal stabilisation; K562 lysate, 10 uM; active = over 0.2 and 3.5 SD of the protein, either way, in both replicates (recomputed)
nilotinib = compound: Cc1cn(-c2cc(NC(=O)c3ccc(C)c(Nc4nccc(-c5cccnc5)n4)c3)cc(C(F)(F)F)c2)cn1 [nilotinib]
In short: (§1)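 Soluble protein was defined as the supernatant remaining after 21,000xg for 90 min, following pooling of heated aliquots and adjustment to 0.5% NP-40 at 4°C. Before that, crude K562 extract at 1 mg/mL protein in PBS pH 7.4 with 1 mM MgCl2 was treated with 10 μM compound for 30 min and heated for 3 min across 48°C-58°C. Quantification used TMTpro 16plex LC-MS/MS with channel sums equalised, and values are log-two fold changes in thermal stability relative to solvent controls from duplicates.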

[1] = compound: Cc1nc(Nc2n[nH]c3c2CN(C(=O)N[C@H](CN(C)C)c2ccccc2)C3(C)C)c2sccc2n1
In short: as §1

dasatinib = compound: Cc1nc(Nc2ncc(C(=O)Nc3c(C)cccc3Cl)s2)cc(N2CCN(CCO)CC2)n1 [dasatinib]
In short: as §1

[2] = compound: Cc1ncc(-c2ccnc(Nc3ccc(S(C)(=O)=O)cc3)n2)n1C(C)C
In short: as §1

[3] = compound: Cn1cc(-c2ccc3c(c2)CCN3C(=O)Cc2cccc(C(F)(F)F)c2)c2c(N)ncnc21
In short: as §1

quisinostat = compound: Cn1cc(CNCC2CCN(c3ncc(C(=O)NO)cn3)CC2)c2ccccc21 [quisinostat]
In short: as §1

tipifarnib = compound: Cn1cncc1[C@@](N)(c1ccc(Cl)cc1)c1ccc2c(c1)c(-c1cccc(Cl)c1)cc(=O)n2C [tipifarnib]
In short: as §1

[4] = compound: NC(=O)Nc1cc(-c2cccc(F)c2)sc1C(=O)N[C@H]1CCCNC1
In short: as §1

[5] = compound: NC(=O)c1cnc(N[C@@H]2CCCC[C@@H]2N)nc1Nc1cccc(-n2nccn2)c1
In short: as §1

[6] = compound: NC1(c2ccc(-c3nc4ccn5c(=O)[nH]nc5c4cc3-c3ccccc3)cc2)CCC1
In short: as §1

Measured: log2 fold change

DFFA (UniProt O00273)
inactive: nilotinib 0.03 | [1] -0.014 | dasatinib -0.001 | [2] 0.044 | [3] -0.019 | quisinostat 0.056 | tipifarnib 0.025 | [4] -0.041 | [5] -0.015 | [6] -0.011

DERL2 (UniProt Q9GZP9)
inactive: nilotinib 0.001 | [1] -0.042 | dasatinib -0.005 | [2] 0.008 | [3] -0.028 | quisinostat -0.069 | tipifarnib 0.016 | [4] 0 | [5] 0.025 | [6] 0.017

DCTN6 (UniProt O00399)
inactive: nilotinib -0.05 | [1] 0.023 | dasatinib 0.005 | [2] 0.048 | [3] -0.01 | quisinostat -0.007 | tipifarnib -0.04 | [4] -0.004 | [5] -0.044 | [6] -0.046

DDX10 (UniProt Q13206)
inactive: nilotinib 0.032 | [1] -0.003 | dasatinib -0.047 | [2] 0.063 | [3] -0.01 | quisinostat 0.146 | tipifarnib 0.076 | [4] 0.086 | [5] -0.117 | [6] -0.038

CZIB (UniProt Q9NWV4)
inactive: nilotinib -0.017 | [1] 0.039 | dasatinib 0.029 | [2] -0.006 | [3] 0.008 | quisinostat 0.043 | tipifarnib -0.048 | [4] -0.038 | [5] -0.029 | [6] 0.015

DAXX (UniProt Q9UER7)
inactive: nilotinib 0.01 | [1] -0.044 | dasatinib 0.043 | [2] 0.07 | [3] -0.042 | quisinostat -0.122 | tipifarnib -0.045 | [4] 0.038 | [5] 0.003 | [6] -0.048

DCUN1D4 isoform 3 (UniProt Q92564)
inactive: nilotinib 0.023 | [1] -0.007 | dasatinib -0.062 | [2] -0.009 | [3] -0.046 | quisinostat 0.066 | tipifarnib 0.017 | [4] -0.019 | [5] -0.036 | [6] -0.043

DDX19A (UniProt Q9NUU7)
inactive: nilotinib -0.023 | [1] 0.045 | dasatinib 0.048 | [2] -0.008 | [3] 0.02 | quisinostat -0.024 | tipifarnib -0.044 | [4] -0.022 | [5] -0.004 | [6] 0.03

DCPS (UniProt Q96C86)
inactive: nilotinib 0.006 | [1] -0.014 | dasatinib 0.019 | [2] 0.026 | [3] 0.001 | quisinostat -0.049 | tipifarnib 0 | [4] 0.013 | [5] 0.024 | [6] -0.003

DCTPP1 (UniProt Q9H773)
inactive: nilotinib -0.009 | [1] 0.059 | dasatinib -0.036 | [2] 0.02 | [3] -0.005 | quisinostat -0.02 | tipifarnib 0.004 | [4] -0.01 | [5] 0.007 | [6] -0.021

DDX47 (UniProt Q9H0S4)
inactive: nilotinib 0.054 | [1] -0.016 | dasatinib 0.014 | [2] 0.019 | [3] -0.016 | quisinostat -0.033 | tipifarnib 0.021 | [4] -0.018 | [5] 0.048 | [6] -0.009

CYSTM1 (UniProt Q9H1C7)
inactive: nilotinib -0.055 | [1] 0.109 | dasatinib 0.11 | [2] 0.007 | [3] -0.045 | quisinostat -0.197 | tipifarnib -0.06 | [4] -0.053 | [5] 0.069 | [6] -0.037

DBNDD1 isoform 3 (UniProt Q9H9R9)
inactive: nilotinib 0.09 | [1] -0.223 | dasatinib -0.079 | [2] 0.085 | [3] -0.427 | quisinostat -0.139 | tipifarnib 0.044 | [4] 0.018 | [5] -0.064 | [6] 0.005

D2HGDH (UniProt Q8N465)
inactive: nilotinib 0.016 | [1] 0.067 | dasatinib -0.007 | [2] -0.084 | [3] 0.047 | quisinostat -0.007 | tipifarnib -0.089 | [4] 0.022 | [5] 0.015 | [6] -0.02

DAP (UniProt P51397)
inactive: nilotinib 0.027 | [1] -0.011 | dasatinib 0.004 | [2] 0.028 | [3] -0.056 | quisinostat 0.017 | tipifarnib 0.026 | [4] -0.004 | [5] -0.053 | [6] 0.002

DAB2 (UniProt P98082)
inactive: nilotinib -0.011 | [1] 0.024 | dasatinib 0 | [2] 0.034 | [3] 0.02 | quisinostat -0.026 | tipifarnib -0.034 | [4] 0.058 | [5] 0 | [6] -0.002

DDB2 (UniProt Q92466)
inactive: nilotinib -0.027 | [1] -0.024 | dasatinib -0.033 | [2] -0.044 | [3] 0.02 | quisinostat 0.028 | tipifarnib 0.026 | [4] 0.021 | [5] 0.006 | [6] -0.003

DEUP1 (UniProt Q05D60)
inactive: nilotinib -0.106 | [1] -0.002 | dasatinib 0.029 | [2] 0.191 | [3] -0.091 | quisinostat -0.064 | tipifarnib 0.12 | [4] -0.025 | [5] 0.245 | [6] -0.397

DBI isoform 5 (UniProt P07108)
inactive: nilotinib 0.003 | [1] 0.094 | dasatinib 0.006 | [2] 0.041 | [3] 0.015 | quisinostat 0.035 | tipifarnib -0.002 | [4] -0.038 | [5] -0.032 | [6] -0.059

DAP3 (UniProt P51398)
inactive: nilotinib 0 | [1] 0 | dasatinib 0.024 | [2] 0.003 | [3] 0.032 | quisinostat -0.057 | tipifarnib -0.011 | [4] 0.035 | [5] 0.02 | [6] 0.026

Two records drawn at random from those above:
DEUP1 (UniProt Q05D60)
inactive: nilotinib -0.106 | [1] -0.002 | dasatinib 0.029 | [2] 0.191 | [3] -0.091 | quisinostat -0.064 | tipifarnib 0.12 | [4] -0.025 | [5] 0.245 | [6] -0.397

DBI isoform 5 (UniProt P07108)
inactive: nilotinib 0.003 | [1] 0.094 | dasatinib 0.006 | [2] 0.041 | [3] 0.015 | quisinostat 0.035 | tipifarnib -0.002 | [4] -0.038 | [5] -0.032 | [6] -0.059

(listing goes on)

DDX24 (UniProt Q9GZR7)
inactive: nilotinib 0.028 | [1] -0.026 | dasatinib 0.011 | [2] -0.055 | [3] -0.052 | quisinostat 0.045 | tipifarnib 0.012 | [4] 0.028 | [5] 0.007 | [6] -0.017

DBNL isoform 3 (UniProt Q9UJU6)
inactive: nilotinib 0.019 | [1] -0.009 | dasatinib 0.03 | [2] 0.007 | [3] -0.038 | quisinostat 0.095 | tipifarnib 0.019 | [4] -0.025 | [5] -0.006 | [6] -0.021

DCUN1D1 (UniProt Q96GG9)
inactive: nilotinib -0.016 | [1] -0.004 | dasatinib 0.006 | [2] -0.03 | [3] 0.015 | quisinostat -0.027 | tipifarnib 0.047 | [4] 0.016 | [5] -0.003 | [6] 0.059

DDRGK1 (UniProt Q96HY6)
inactive: nilotinib -0.065 | [1] -0.01 | dasatinib -0.004 | [2] 0.096 | [3] -0.005 | quisinostat -0.002 | tipifarnib -0.014 | [4] 0.023 | [5] 0.025 | [6] -0.073

DCP1A (UniProt Q9NPI6)
inactive: nilotinib 0.022 | [1] 0.117 | dasatinib -0.052 | [2] -0.023 | [3] -0.001 | quisinostat -0.042 | tipifarnib 0.039 | [4] 0.008 | [5] -0.041 | [6] -0.03

DDX54 isoform 2 (UniProt Q8TDD1)
inactive: nilotinib 0.047 | [1] -0.035 | dasatinib 0.002 | [2] 0.019 | [3] 0.089 | quisinostat 0.042 | tipifarnib -0.023 | [4] 0.021 | [5] 0.001 | [6] 0.011

DDX52 (UniProt Q9Y2R4)
inactive: nilotinib 0.087 | [1] 0.073 | dasatinib 0.047 | [2] -0.067 | [3] -0.057 | quisinostat -0.13 | tipifarnib -0.068 | [4] 0.089 | [5] 0.035 | [6] 0.01

DCAF6 isoform 3 (UniProt Q58WW2)
inactive: nilotinib 0.003 | [1] 0.015 | dasatinib -0.013 | [2] -0.003 | [3] 0.02 | quisinostat 0.007 | tipifarnib 0.037 | [4] -0.012 | [5] -0.006 | [6] -0.058

DAD1 (UniProt P61803)
inactive: nilotinib -0.084 | [1] 0.02 | dasatinib -0.017 | [2] 0.136 | [3] -0.02 | quisinostat -0.075 | tipifarnib -0.112 | [4] 0.042 | [5] 0.083 | [6] -0.102

DDX20 (UniProt Q9UHI6)
inactive: nilotinib -0.009 | [1] 0.008 | dasatinib -0.054 | [2] 0.003 | [3] 0.058 | quisinostat -0.058 | tipifarnib -0.01 | [4] 0.095 | [5] 0.03 | [6] -0.024
